# Measured values from PubChem BioAssay AID256 (DTP/NCI, 2004).
# The list shows only some results of the screen, not a fair sample: its compounds were picked by chemical class. Other doses and runs of a compound may be missing. T/C is the treated group as % of the vehicle group. Some entries give survivors of the animals treated and no T/C: the source files T/C as zero there, which appears to mark a toxic dose or a test without result, not a measured value. Survivors were counted at the toxicity check, usually on the fifth day, unless a day is given; later deaths do not show. Schedules are NCI's codes, read here as Q, the interval in days (D) or hours (H), X, the number of doses. Where survival is the endpoint, this PubChem deposit counts one and a half times the control or more as active, and values a quarter to a half above the control carry no call in these data; other NCI protocols may use other cut-offs. Some entries show no survivor count and are marked so; the dose need not have been tolerated. Some T/C values are followed by the survivors on the day toxicity was checked, most often the fifth; without a count or a note in brackets, all were alive then.
# Tested on: CD2F1 mice, L1210 leukemia ip, survival T/C
# Experiment: NCI In Vivo Anticancer Drug Screen. Data for tumor model L1210 Leukemia (intraperitoneal) in CD2F1 (CDF1) mice
# Settings: higher T/C = longer survival
# Summary of the method: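 Vehicle-treated tumor-bearing mice served as controls (C) for compound-treated mice (T). Reported figure is T divided by C.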
compound,measurement,setting,value
O=[N+]([O-])c1ccc(N/N=C(/C=N/Nc2ccc([N+](=O)[O-])cc2[N+](=O)[O-])C(O)C(O)C(O)CO)c([N+](=O)[O-])c1 (stereo not given),T/C,"T/C endpoint: mean survival time, dose: 75.0 mg/kg/injection, schedule: Q01DX001 (ip), vehicle: saline",103 % of control
same,T/C,"T/C endpoint: mean survival time, dose: 150.0 mg/kg/injection, schedule: Q01DX001 (ip), vehicle: saline",94 % of control
same,T/C,"T/C endpoint: mean survival time, dose: 300.0 mg/kg/injection, schedule: Q01DX001 (ip), vehicle: saline",97 % of control
COc1cnc2ccccc2n1.O=[N+]([O-])c1cc([N+](=O)[O-])c(O)c([N+](=O)[O-])c1,T/C,"T/C endpoint: mean survival time, dose: 100.0 mg/kg/injection, schedule: Q04DX003 (ip), vehicle: saline",103 % of control
same,T/C,"T/C endpoint: mean survival time, dose: 200.0 mg/kg/injection, schedule: Q04DX003 (ip), vehicle: saline",93 % of control
same,T/C,"T/C endpoint: mean survival time, dose: 400.0 mg/kg/injection, schedule: Q04DX003 (ip), vehicle: saline",93 % of control [5 of 6 alive]
Cc1[nH]c(=O)[nH]c(=O)c1N(CCCl)CCCl,T/C,"T/C endpoint: mean survival time, dose: 1.0 mg/kg/injection, schedule: Q01DX007 (ip), vehicle: saline",146 % of control
same,T/C,"T/C endpoint: mean survival time, dose: 1.0 mg/kg/injection, schedule: Q01DX009 (ip), vehicle: saline",150 % of control
same,T/C,"T/C endpoint: mean survival time, dose: 1.0 mg/kg/injection, schedule: Q03DX003 (ip), vehicle: saline",127 % of control
same,T/C,"T/C endpoint: mean survival time, dose: 1.0 mg/kg/injection, schedule: Q04DX003 (ip), vehicle: saline",128 % of control
same,T/C,"T/C endpoint: mean survival time, dose: 2.0 mg/kg/injection, schedule: Q01DX007 (ip), vehicle: saline",160 % of control [5 of 6 alive]
same,T/C,"T/C endpoint: mean survival time, dose: 2.0 mg/kg/injection, schedule: Q01DX009 (ip), vehicle: saline",148 % of control
same,T/C,"T/C endpoint: mean survival time, dose: 2.0 mg/kg/injection, schedule: Q03DX003 (ip), vehicle: saline",182 % of control
same,T/C,"T/C endpoint: mean survival time, dose: 2.0 mg/kg/injection, schedule: Q04DX003 (ip), vehicle: saline",151 % of control
same,T/C,"T/C endpoint: mean survival time, dose: 4.0 mg/kg/injection, schedule: Q01DX007 (ip), vehicle: saline",108 % of control [5 of 6 alive]
same,T/C,"T/C endpoint: mean survival time, dose: 4.0 mg/kg/injection, schedule: Q01DX009 (ip), vehicle: saline",86 % of control
same,T/C,"T/C endpoint: mean survival time, dose: 4.0 mg/kg/injection, schedule: Q03DX003 (ip), vehicle: saline",145 % of control [5 of 6 alive]
same,T/C,"T/C endpoint: mean survival time, dose: 4.0 mg/kg/injection, schedule: Q04DX003 (ip), vehicle: saline",126 % of control
O=C1NP(=O)(Sc2ccccc2)C=CN1C1OC(CO)C(O)C1O (stereo not given),T/C,"T/C endpoint: median survival time, dose: 15.5 mg/kg/injection, schedule: Q01DX005 (ip), vehicle: saline",110 % of control
same,T/C,"T/C endpoint: median survival time, dose: 31.0 mg/kg/injection, schedule: Q01DX005 (ip), vehicle: saline",103 % of control
same,T/C,"T/C endpoint: median survival time, dose: 62.0 mg/kg/injection, schedule: Q01DX005 (ip), vehicle: saline",103 % of control
same,T/C,"T/C endpoint: median survival time, dose: 124.0 mg/kg/injection, schedule: Q01DX005 (ip), vehicle: saline",98 % of control
O=[N+]([O-])N1CCN([N+](=O)[O-])CC1,T/C,"T/C endpoint: mean survival time, dose: 100.0 mg/kg/injection, schedule: Q01DX001 (ip), vehicle: saline",100 % of control [survivor count not shown]
CP1(=S)SP(C)(=S)S1 (stereo not given),T/C,"T/C endpoint: mean survival time, dose: 50.0 mg/kg/injection, schedule: Q01DX009 (ip), vehicle: saline with Tween-80",98 % of control [survivor count not shown]
same,T/C,"T/C endpoint: mean survival time, dose: 100.0 mg/kg/injection, schedule: Q01DX009 (ip), vehicle: saline with Tween-80",100 % of control [survivor count not shown]
CC(C)CC(CC(C)C)NC(C)CO.O=[N+]([O-])c1cc([N+](=O)[O-])c(O)c([N+](=O)[O-])c1,T/C,"T/C endpoint: mean survival time, dose: 75.0 mg/kg/injection, schedule: Q01DX001 (ip), vehicle: other",100 % of control
same,T/C,"T/C endpoint: mean survival time, dose: 150.0 mg/kg/injection, schedule: Q01DX001 (ip), vehicle: other",103 % of control
same,survivor count,"T/C endpoint: mean survival time, dose: 300.0 mg/kg/injection, schedule: Q01DX001 (ip), vehicle: other",0 of 6
O=c1[nH]cc(Nc2c([N+](=O)[O-])cc([N+](=O)[O-])cc2[N+](=O)[O-])c(=O)[nH]1,T/C,"T/C endpoint: mean survival time, dose: 6.25 mg/kg/injection, schedule: Q01DX009 (ip), vehicle: saline with Tween-80",107 % of control
same,T/C,"T/C endpoint: mean survival time, dose: 6.25 mg/kg/injection, schedule: Q04DX003 (ip), vehicle: saline with Tween-80",100 % of control
same,T/C,"T/C endpoint: mean survival time, dose: 12.5 mg/kg/injection, schedule: Q01DX009 (ip), vehicle: saline with Tween-80",93 % of control
same,T/C,"T/C endpoint: mean survival time, dose: 12.5 mg/kg/injection, schedule: Q04DX003 (ip), vehicle: saline with Tween-80",96 % of control
same,T/C,"T/C endpoint: mean survival time, dose: 25.0 mg/kg/injection, schedule: Q01DX009 (ip), vehicle: saline with Tween-80",95 % of control
same,T/C,"T/C endpoint: mean survival time, dose: 25.0 mg/kg/injection, schedule: Q04DX003 (ip), vehicle: saline with Tween-80",100 % of control
same,survivor count,"T/C endpoint: mean survival time, dose: 100.0 mg/kg/injection, schedule: Q04DX003 (ip), vehicle: saline with Tween-80",0 of 6
same,survivor count,"T/C endpoint: mean survival time, dose: 200.0 mg/kg/injection, schedule: Q04DX003 (ip), vehicle: saline with Tween-80",0 of 6
same,survivor count,"T/C endpoint: mean survival time, dose: 400.0 mg/kg/injection, schedule: Q04DX003 (ip), vehicle: saline with Tween-80",0 of 6
O=C(c1ccccc1[N+](=O)[O-])N(CCCl)CCCl,T/C,"T/C endpoint: mean survival time, dose: 50.0 mg/kg/injection, schedule: Q01DX009 (ip), vehicle: Klucel (hydroxypropylcellulose) (HPC)",100 % of control
same,T/C,"T/C endpoint: mean survival time, dose: 100.0 mg/kg/injection, schedule: Q01DX009 (ip), vehicle: Klucel (hydroxypropylcellulose) (HPC)",102 % of control
same,T/C,"T/C endpoint: mean survival time, dose: 200.0 mg/kg/injection, schedule: Q01DX009 (ip), vehicle: Klucel (hydroxypropylcellulose) (HPC)",96 % of control
